Values quoted from earlier work, collected in patent publication US6558650B1, “Enhancement of cellular gallium uptake” (Oregon Health and Science University, priority 1998, dated 2003).

Settings: cited from earlier work

SMILES: COC(=O)C1=C(C)NC(C)=C(C(=O)OC)C1c1ccccc1[N+](=O)[O-] [Nifedipine, dimethyl 1,4-dihydro-2,6-dimethyl-4-(2-nitrophenyl)-3,5-pyridinedicarboxylate]
- oral absorption: well-absorbed orally
